Values quoted from earlier work as cited in patent US20240279226A1, “ERGOLINE-DERIVED AGONISTS OF THE 5-HT2A RECEPTOR” (priority 2021, published 2024).

Protein sequences, listed by entry. Tags and fused reporters are not part of them.
UniProt P41595, whole entry, species assumed: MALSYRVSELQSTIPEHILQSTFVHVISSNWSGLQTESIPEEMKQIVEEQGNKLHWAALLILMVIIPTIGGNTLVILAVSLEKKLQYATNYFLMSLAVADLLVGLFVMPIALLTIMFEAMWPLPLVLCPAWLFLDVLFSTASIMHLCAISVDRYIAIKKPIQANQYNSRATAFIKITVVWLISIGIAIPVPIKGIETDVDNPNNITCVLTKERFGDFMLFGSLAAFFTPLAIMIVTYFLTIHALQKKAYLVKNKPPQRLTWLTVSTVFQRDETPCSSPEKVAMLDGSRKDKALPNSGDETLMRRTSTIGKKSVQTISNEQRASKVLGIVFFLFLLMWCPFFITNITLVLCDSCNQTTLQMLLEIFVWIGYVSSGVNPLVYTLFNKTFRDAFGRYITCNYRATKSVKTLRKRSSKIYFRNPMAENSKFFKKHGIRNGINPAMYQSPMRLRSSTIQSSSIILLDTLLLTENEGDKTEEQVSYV

Target: 5HT2B (Homo sapiens (Human), UniProt P41595)
Details: literature report; cited from earlier work

## CCN(CC)C(=O)N[C@H]1C=C2c3cccc4[nH]cc(c34)C[C@H]2N(C)C1 [Lisuride]
  activity type at 5HT2B: partial agoinst
